Results reported in PubChem BioAssay AID540356 (Broad Institute, 2011).
Out of some 2,500 compounds screened, about 360 (14%) were called active.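 The calls were made as follows: active = signal-lowering compounds whose fitted half-maximal concentration AC50 is no higher than ten times their top tested concentration; inconclusive = flat curve with 30 to 70% inhibition, or poor fit; inactive = flat within 30%, signal increase, or AC50 above limit.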 Only a part is listed here, and it is no random draw.

assay: non-specific inhibitors of H2O2 luminol chemiluminescence – biochemical, luminescence, no ALR or DTT, cherry-pick, artefact control for ALR inhibitor project, dose response (AID 540356); conditions: HRP/H2O2 luminol luminescence counterscreen

SMILES	AC50
Cc1ccc(S(=O)(=O)NNC(=O)c2ccc(O)cc2)cc1	inactive: > 10 µM
C/C(=C\c1ccc(N)cc1)c1nc2ccccc2[nH]1	active: 6.64 µM
CC(=O)N1CCN(c2ccc(NCc3ccccc3)cc2)CC1	active: 8.41 µM
CCN(CCNC(=O)C1CCN(S(=O)(=O)CC)CC1)c1ccccc1	inactive: > 10 µM
O=C(N/N=C/c1c(O)n(Cc2ccccc2)c(=O)c2ccccc12)c1cccnc1	inactive: > 10 µM
CCN(CC)c1ccc(NC(=O)CCNC(=O)c2ccco2)cc1	inactive: > 10 µM
Nc1[nH]c(N=NC(=O)c2ccc(F)cc2)c2ccccc12	inactive: > 10 µM
Cc1ccc(S(=O)(=O)N2[C@@H](c3ccc(Cl)cc3)C(C(=O)O)=CC[C@H]2c2ccc(Cl)c(Cl)c2)cc1	inactive: > 10 µM
COc1cc(/C=N/NC(=O)CCN2CCCCC2)ccc1O	active: 8.16 µM
O=C(O)c1ccc2c(c1)C(=O)N(c1ccc(Nc3ccccc3)cc1)C2=O	inactive: > 10 µM
Cc1cc(C)c2c(-n3cccc3)c(C(=O)NNS(=O)(=O)c3ccc(Br)cc3)sc2n1	inactive: > 10 µM
Cc1cc(C)c(S(=O)(=O)Nc2ccc(N(C)C)cc2)c(C)c1-n1cnnn1	inactive: > 10 µM
CCN(CC)c1ccc(NC(=O)c2ccc(Br)o2)cc1	inactive: > 10 µM
O=C(NN=C1CCC(=NNC(=O)c2cccnc2)CC1)c1cccnc1	active: 8.24 µM
O=C(CCN1C(=O)/C(=C/c2ccccc2Cl)SC1=S)Nc1ccccc1C(=O)O	inactive: > 10 µM
COc1cc(C(=O)Nc2ccc(N(C)C)cc2)cc(OC)c1OC	inactive: > 10 µM
Oc1cc(O)cc(/C=C/c2ccc(O)c(O)c2)c1	active: 5.21 µM
NNC(=O)CCc1nc2ccc(O)cc2[nH]1	active: 10.3 µM

Some of these compounds in order of length of the SMILES, ascending.
SMILES	AC50
CC(=O)N1CCN(c2ccc(NCc3ccccc3)cc2)CC1	active: 8.41 µM
Cc1cc(C)c(S(=O)(=O)Nc2ccc(N(C)C)cc2)c(C)c1-n1cnnn1	inactive: > 10 µM
Cc1cc(C)c2c(-n3cccc3)c(C(=O)NNS(=O)(=O)c3ccc(Br)cc3)sc2n1	inactive: > 10 µM
